Drawing on paper PMC8944987, “In Vivo Efficacy of SQ109 against Leishmania donovani, Trypanosoma spp. and Toxoplasma gondii and In Vitro Activity of SQ109 Metabolites” (Biomedicines, 2022), this text covers IC50 for 1 compound.

pIC50: −log10 of the molar value.

In assay [1] the test system is T. cruzi Dm28c epimastigotes. Put plainly: T. cruzi epimastigotes assay (resazurin). Format: cell-based. To be noted: Trypanosoma cruzi; 72 h; Figure 2C; read-out: IC50, T. cruzi epimastigote growth inhibition (resazurin reduction). The procedure:
The exponential growth phase of epimastigotes were treated with different concentrations of drugs or 0.1% DMSO as negative control and incubated for 3 days at 28 °C. The viability of parasites was quantified with resazurin as described in the T. brucei assay.
(In general: The colour change of resazurin is a common sign of viable cells or microbes.)

Assay [2] relates to T. cruzi Dm28c tissue-culture derived trypomastigotes. Description: T. cruzi tissue culture trypomastigotes (TCT) assay. The class given is cell-based. To be noted: Trypanosoma cruzi, 24 h, 24 h treatment; Figure 2B; read-out: IC50, T. cruzi trypomastigotes (TCTs).

`O=C(Cn1ccnc1[N+](=O)[O-])NCc1ccccc1` [benznidazole]: the figures for the pIC50 in assay [1] and in assay [2] were 5.49 and 4.22, respectively.
